PubChem BioAssay AID1508597, Cure First | 2020

Assay: 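Genes whose silencing sensitises or protects ovarian cancer cells against rucaparib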 (primary screen)
System: human ovarian carcinoma lines grown from tumours: OCI-P5x (papillary serous) and OCI-C5x (clear cell)
Reagents: siRNA pool against human genes, 1.25 pmol siRNA per well
Timing: 72 h or 96 h, depending on the cell culture
Challenge: rucaparib 20 µM (about IC30) or vehicle, present until read-out
Measured: 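Luminescent ATP-based viability assay read 72 or 96 h after transfection, depending on culture, given as normalised percent viability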
Reading the numbers: viability, normalised: higher = more viable cells remaining
Hit rule: 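a well counts as a hit if its normalised viability is under 80 percent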
Meaning of the calls: active = viability under 80%; inactive = viability 80% or more
The deposit covers about 2,100 reagents; below is a part drawn at random. 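Calls flag viability under 80% in either arm, not effects specific to rucaparib; the reference for percent is not stated.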 Entries without a mark were called inactive. No sequences are given here. The record does not give: the 100% reference.

BBS7 (GeneID 55212), rucaparib or vehicle Rucaparib, cell line OCI-C5x (clear cell), technical replicate 1 scored viability, normalised (%) = 74.4 (active). BBS7 (GeneID 55212), rucaparib or vehicle Rucaparib, cell line OCI-C5x (clear cell), technical replicate 2 gave viability, normalised (%) = 58.3 (active). For BBS7 (GeneID 55212), rucaparib or vehicle Rucaparib, cell line OCI-C5x (clear cell), technical replicate 3, the entry reads viability, normalised (%) = 45.6 (active). BBS7 (GeneID 55212), rucaparib or vehicle Rucaparib, cell line OCI-P5x (serous), technical replicate 1 scored viability, normalised (%) = 71.2 (active). With BBS7 (GeneID 55212), rucaparib or vehicle Rucaparib, cell line OCI-P5x (serous), technical replicate 2, the values are viability, normalised (%) = 80. BBS7 (GeneID 55212), rucaparib or vehicle Rucaparib, cell line OCI-P5x (serous), technical replicate 3 showed viability, normalised (%) = 76.9 (active).

BBS7 (GeneID 55212), rucaparib or vehicle Vehicle, cell line OCI-C5x (clear cell), technical replicate 1 gave viability, normalised (%) = 29.4 (active). BBS7 (GeneID 55212), rucaparib or vehicle Vehicle, cell line OCI-C5x (clear cell), technical replicate 2 scored viability, normalised (%) = 48.9 (active). For BBS7 (GeneID 55212), rucaparib or vehicle Vehicle, cell line OCI-C5x (clear cell), technical replicate 3 the deposit lists viability, normalised (%) = 51.8 (active). BBS7 (GeneID 55212), rucaparib or vehicle Vehicle, cell line OCI-P5x (serous), technical replicate 1 scored viability, normalised (%) = 58.9 (active). BBS7 (GeneID 55212), rucaparib or vehicle Vehicle, cell line OCI-P5x (serous), technical replicate 2 gave viability, normalised (%) = 68.3 (active). BBS7 (GeneID 55212), rucaparib or vehicle Vehicle, cell line OCI-P5x (serous), technical replicate 3 gave viability, normalised (%) = 80.2.

Not a retest: entries from further up.
BBS7 (GeneID 55212), rucaparib or vehicle Rucaparib, cell line OCI-C5x (clear cell), technical replicate 2 → viability, normalised (%) = 58.3 (active)
BBS7 (GeneID 55212), rucaparib or vehicle Rucaparib, cell line OCI-C5x (clear cell), technical replicate 3 → viability, normalised (%) = 45.6 (active)
BBS7 (GeneID 55212), rucaparib or vehicle Rucaparib, cell line OCI-P5x (serous), technical replicate 1 → viability, normalised (%) = 71.2 (active)

The listing continues.
CHMP4B (GeneID 128866), rucaparib or vehicle Rucaparib, cell line OCI-C5x (clear cell), technical replicate 1 showed viability, normalised (%) = 78.9 (active). CHMP4B (GeneID 128866), rucaparib or vehicle Rucaparib, cell line OCI-C5x (clear cell), technical replicate 2 gave viability, normalised (%) = 95.1. CHMP4B (GeneID 128866), rucaparib or vehicle Rucaparib, cell line OCI-C5x (clear cell), technical replicate 3 showed viability, normalised (%) = 80. CHMP4B (GeneID 128866), rucaparib or vehicle Rucaparib, cell line OCI-P5x (serous), technical replicate 1 scored viability, normalised (%) = 71 (active). With CHMP4B (GeneID 128866), rucaparib or vehicle Rucaparib, cell line OCI-P5x (serous), technical replicate 2, the entry reads viability, normalised (%) = 83.1. For CHMP4B (GeneID 128866), rucaparib or vehicle Rucaparib, cell line OCI-P5x (serous), technical replicate 3, the values are viability, normalised (%) = 61.4 (active).

For CHMP4B (GeneID 128866), rucaparib or vehicle Vehicle, cell line OCI-C5x (clear cell), technical replicate 1, the values are viability, normalised (%) = 64.9 (active). CHMP4B (GeneID 128866), rucaparib or vehicle Vehicle, cell line OCI-C5x (clear cell), technical replicate 2 scored viability, normalised (%) = 78.6 (active). CHMP4B (GeneID 128866), rucaparib or vehicle Vehicle, cell line OCI-C5x (clear cell), technical replicate 3 scored viability, normalised (%) = 66.8 (active). For CHMP4B (GeneID 128866), rucaparib or vehicle Vehicle, cell line OCI-P5x (serous), technical replicate 1, the values are viability, normalised (%) = 65.2 (active). For CHMP4B (GeneID 128866), rucaparib or vehicle Vehicle, cell line OCI-P5x (serous), technical replicate 2, the values are viability, normalised (%) = 93.4. With CHMP4B (GeneID 128866), rucaparib or vehicle Vehicle, cell line OCI-P5x (serous), technical replicate 3, the values are viability, normalised (%) = 78.2 (active).
